Assay results: ChEMBL document CHEMBL4483862, “Open-source discovery of chemical leads for next-generation chemoprotective antimalarials” (2018)

Tested on: Plasmodium berghei
Assay: Luciferase/luciferin-expressing antifolate-resistant parasites were used to infect a culture of HepG2 cells that were pre-incubated with compounds. Infected hepatocytes emit light due to the luciferase reaction. Assay results are presented as the percent inhibition of light emission compared to control. […]
Assay type: functional
Conditions: sporozoite, read-out: LUCIFERASE INFECTION ASSAY - IC90

**Q.** With `CCCCc1oc2ccccc2c1C(=O)c1cc(I)c(OCCN(CC)CC)c(I)c1` [AMIODARONE] as the compound, how does the IC90 read?
**A.** > 4.84 µM
